Binding data for 15 molecules are collected here from article doi:10.1101/2023.05.15.540505.

Protein sequences, listed by entry. Tags and fused reporters are not part of them.
UniProt O95714: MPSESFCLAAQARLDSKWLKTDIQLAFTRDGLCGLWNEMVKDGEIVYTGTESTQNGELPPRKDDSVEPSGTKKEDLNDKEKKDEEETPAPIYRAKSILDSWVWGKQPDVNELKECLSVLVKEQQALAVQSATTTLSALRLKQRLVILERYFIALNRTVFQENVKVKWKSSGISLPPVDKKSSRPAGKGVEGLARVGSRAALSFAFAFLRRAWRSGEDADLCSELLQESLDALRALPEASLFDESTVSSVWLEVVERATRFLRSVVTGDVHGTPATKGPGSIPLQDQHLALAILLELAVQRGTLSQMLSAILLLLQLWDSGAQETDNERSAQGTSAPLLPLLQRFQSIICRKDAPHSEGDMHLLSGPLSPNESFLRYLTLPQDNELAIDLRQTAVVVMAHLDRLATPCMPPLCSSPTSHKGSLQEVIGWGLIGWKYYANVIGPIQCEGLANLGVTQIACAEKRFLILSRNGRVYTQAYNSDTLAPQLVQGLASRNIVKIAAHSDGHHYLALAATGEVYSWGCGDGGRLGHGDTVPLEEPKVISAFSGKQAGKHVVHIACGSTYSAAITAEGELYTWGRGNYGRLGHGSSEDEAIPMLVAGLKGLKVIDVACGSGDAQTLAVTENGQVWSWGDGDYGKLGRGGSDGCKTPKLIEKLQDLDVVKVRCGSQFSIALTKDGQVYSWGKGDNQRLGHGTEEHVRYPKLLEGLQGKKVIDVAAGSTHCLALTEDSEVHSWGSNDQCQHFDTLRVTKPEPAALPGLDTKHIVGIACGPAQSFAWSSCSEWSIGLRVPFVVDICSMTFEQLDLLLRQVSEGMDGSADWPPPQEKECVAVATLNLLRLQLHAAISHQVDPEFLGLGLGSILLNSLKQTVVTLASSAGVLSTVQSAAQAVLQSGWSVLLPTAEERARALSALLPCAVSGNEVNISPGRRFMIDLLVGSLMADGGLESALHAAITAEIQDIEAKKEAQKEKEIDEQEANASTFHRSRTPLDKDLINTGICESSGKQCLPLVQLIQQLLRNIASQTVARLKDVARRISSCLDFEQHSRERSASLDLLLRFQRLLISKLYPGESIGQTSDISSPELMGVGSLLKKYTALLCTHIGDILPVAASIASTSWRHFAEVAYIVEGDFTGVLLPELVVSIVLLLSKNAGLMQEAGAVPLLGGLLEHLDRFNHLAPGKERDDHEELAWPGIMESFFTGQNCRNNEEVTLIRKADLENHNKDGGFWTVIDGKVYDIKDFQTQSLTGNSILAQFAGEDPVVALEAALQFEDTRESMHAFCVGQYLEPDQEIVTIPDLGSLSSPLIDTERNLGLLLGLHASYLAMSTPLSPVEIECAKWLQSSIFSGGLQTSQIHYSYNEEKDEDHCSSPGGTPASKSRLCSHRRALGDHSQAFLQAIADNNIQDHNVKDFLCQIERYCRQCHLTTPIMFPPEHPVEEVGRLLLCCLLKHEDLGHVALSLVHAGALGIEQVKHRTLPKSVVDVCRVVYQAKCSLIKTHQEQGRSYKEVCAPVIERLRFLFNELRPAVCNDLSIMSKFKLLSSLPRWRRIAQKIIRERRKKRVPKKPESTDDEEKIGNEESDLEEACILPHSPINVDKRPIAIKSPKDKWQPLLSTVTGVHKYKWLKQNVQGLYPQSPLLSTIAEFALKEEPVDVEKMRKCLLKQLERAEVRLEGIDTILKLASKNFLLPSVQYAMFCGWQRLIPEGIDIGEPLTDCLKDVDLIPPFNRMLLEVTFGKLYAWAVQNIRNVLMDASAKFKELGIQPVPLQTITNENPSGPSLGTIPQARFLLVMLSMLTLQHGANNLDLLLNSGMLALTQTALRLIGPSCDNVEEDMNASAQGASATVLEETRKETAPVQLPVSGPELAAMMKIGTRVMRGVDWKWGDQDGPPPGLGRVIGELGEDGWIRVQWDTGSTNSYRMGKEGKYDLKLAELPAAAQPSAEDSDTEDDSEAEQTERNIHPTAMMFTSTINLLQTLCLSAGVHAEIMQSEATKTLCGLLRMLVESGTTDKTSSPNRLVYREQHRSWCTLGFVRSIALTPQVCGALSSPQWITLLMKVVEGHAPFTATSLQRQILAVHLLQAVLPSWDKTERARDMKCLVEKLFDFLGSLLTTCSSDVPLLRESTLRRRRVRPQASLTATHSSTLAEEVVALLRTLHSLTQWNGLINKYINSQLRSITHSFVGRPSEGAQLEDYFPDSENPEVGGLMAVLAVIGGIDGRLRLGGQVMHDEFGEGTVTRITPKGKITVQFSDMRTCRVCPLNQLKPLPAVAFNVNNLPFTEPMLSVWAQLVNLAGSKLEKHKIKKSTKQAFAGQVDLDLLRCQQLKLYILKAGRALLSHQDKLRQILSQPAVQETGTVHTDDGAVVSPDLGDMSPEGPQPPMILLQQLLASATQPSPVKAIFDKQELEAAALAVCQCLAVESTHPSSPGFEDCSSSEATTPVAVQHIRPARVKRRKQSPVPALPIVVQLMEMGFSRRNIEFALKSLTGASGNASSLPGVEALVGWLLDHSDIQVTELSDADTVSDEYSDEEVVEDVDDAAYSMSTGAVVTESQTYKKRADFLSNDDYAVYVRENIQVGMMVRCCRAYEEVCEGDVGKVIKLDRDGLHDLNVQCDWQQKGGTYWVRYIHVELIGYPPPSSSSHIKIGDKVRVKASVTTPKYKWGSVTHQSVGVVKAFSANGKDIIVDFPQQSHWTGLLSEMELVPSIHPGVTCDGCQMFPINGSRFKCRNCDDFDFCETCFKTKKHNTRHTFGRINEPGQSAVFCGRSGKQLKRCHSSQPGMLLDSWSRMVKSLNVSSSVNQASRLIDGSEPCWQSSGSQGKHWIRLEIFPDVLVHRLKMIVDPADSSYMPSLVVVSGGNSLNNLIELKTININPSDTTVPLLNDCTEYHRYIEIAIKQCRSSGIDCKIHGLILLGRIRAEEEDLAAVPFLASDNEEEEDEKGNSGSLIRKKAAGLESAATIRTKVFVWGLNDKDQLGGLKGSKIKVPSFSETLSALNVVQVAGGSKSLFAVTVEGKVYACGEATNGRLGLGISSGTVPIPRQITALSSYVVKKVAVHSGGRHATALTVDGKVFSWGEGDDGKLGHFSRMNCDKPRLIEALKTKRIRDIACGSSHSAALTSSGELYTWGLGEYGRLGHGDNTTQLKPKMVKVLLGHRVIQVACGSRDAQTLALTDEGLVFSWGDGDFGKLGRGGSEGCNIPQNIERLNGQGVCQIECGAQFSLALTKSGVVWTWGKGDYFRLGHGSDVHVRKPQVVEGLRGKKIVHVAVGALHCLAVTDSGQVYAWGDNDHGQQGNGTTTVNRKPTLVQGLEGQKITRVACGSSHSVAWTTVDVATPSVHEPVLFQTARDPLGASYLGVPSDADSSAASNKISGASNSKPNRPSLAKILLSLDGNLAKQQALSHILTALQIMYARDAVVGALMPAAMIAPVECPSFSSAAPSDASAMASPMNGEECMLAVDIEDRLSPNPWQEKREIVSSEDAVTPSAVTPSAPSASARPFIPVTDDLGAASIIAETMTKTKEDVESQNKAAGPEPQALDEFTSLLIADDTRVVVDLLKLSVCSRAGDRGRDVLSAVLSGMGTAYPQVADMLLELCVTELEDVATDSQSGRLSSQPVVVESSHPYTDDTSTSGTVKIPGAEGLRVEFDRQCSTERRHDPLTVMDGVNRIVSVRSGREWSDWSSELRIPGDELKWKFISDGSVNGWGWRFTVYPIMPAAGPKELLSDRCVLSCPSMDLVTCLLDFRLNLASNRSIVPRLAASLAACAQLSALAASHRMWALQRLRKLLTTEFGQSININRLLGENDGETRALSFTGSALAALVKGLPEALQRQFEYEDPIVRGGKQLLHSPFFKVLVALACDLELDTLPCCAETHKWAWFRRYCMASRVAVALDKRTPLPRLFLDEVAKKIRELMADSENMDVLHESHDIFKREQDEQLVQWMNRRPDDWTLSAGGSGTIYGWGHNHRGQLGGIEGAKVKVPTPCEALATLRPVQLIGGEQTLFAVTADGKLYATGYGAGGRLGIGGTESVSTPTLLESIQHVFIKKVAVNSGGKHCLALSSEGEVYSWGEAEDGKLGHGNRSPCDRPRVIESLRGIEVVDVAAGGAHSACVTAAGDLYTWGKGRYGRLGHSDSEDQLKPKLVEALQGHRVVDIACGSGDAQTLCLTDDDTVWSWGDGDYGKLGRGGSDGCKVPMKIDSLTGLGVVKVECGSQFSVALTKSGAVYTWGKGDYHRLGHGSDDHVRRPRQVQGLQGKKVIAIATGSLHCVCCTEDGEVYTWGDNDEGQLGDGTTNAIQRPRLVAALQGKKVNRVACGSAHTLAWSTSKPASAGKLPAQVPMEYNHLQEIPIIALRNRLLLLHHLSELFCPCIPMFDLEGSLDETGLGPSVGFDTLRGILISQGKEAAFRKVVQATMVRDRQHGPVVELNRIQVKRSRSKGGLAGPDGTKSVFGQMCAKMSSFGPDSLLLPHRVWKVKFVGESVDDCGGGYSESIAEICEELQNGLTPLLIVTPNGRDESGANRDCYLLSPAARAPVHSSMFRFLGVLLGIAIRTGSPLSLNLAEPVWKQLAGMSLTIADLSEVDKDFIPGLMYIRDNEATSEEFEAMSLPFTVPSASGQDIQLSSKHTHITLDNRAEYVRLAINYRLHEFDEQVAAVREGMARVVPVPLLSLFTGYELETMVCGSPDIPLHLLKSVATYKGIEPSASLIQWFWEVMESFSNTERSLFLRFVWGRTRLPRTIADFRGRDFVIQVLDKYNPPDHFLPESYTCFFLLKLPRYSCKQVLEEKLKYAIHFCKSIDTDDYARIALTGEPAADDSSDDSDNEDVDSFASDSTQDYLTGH
UniProt Q9P2J5: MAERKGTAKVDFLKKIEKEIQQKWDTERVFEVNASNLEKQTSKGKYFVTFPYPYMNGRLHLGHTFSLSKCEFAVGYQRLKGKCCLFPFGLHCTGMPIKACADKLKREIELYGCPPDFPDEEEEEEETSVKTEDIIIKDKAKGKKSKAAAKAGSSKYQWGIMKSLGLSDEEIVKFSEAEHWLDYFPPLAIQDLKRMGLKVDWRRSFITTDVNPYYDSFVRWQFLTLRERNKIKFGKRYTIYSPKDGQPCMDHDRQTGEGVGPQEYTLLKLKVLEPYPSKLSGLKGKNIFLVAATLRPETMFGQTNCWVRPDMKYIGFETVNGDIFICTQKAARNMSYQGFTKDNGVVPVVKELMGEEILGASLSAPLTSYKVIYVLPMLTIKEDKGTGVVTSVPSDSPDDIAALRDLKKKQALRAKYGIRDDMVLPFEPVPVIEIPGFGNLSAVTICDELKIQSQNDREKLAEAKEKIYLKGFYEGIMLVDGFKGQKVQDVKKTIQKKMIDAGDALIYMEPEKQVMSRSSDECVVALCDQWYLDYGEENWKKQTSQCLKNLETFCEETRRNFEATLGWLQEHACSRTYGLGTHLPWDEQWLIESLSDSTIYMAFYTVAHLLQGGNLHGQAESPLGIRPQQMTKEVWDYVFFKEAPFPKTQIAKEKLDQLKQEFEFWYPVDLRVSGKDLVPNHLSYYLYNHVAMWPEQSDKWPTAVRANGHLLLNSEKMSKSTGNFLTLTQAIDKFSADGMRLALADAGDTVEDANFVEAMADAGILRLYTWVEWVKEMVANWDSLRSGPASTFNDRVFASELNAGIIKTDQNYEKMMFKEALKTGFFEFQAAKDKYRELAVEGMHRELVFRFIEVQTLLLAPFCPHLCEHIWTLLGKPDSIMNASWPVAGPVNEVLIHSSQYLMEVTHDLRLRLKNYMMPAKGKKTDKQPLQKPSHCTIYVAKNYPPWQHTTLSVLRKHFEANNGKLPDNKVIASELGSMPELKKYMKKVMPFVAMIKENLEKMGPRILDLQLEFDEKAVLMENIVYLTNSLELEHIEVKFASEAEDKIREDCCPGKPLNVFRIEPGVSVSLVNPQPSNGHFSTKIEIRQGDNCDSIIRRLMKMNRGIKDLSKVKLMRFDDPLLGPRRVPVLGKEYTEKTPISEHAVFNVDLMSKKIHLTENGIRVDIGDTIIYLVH
UniProt Q07955: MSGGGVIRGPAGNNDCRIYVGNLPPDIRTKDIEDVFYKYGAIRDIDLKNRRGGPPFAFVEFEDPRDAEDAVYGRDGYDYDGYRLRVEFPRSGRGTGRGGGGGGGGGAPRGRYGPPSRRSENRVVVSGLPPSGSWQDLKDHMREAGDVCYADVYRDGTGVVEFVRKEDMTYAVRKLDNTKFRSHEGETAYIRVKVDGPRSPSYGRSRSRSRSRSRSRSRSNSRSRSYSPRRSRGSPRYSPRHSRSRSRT

T1: hypermethylated in cancer 1 (HIC1) (human) (UniProt Q14526)
T1 sequence: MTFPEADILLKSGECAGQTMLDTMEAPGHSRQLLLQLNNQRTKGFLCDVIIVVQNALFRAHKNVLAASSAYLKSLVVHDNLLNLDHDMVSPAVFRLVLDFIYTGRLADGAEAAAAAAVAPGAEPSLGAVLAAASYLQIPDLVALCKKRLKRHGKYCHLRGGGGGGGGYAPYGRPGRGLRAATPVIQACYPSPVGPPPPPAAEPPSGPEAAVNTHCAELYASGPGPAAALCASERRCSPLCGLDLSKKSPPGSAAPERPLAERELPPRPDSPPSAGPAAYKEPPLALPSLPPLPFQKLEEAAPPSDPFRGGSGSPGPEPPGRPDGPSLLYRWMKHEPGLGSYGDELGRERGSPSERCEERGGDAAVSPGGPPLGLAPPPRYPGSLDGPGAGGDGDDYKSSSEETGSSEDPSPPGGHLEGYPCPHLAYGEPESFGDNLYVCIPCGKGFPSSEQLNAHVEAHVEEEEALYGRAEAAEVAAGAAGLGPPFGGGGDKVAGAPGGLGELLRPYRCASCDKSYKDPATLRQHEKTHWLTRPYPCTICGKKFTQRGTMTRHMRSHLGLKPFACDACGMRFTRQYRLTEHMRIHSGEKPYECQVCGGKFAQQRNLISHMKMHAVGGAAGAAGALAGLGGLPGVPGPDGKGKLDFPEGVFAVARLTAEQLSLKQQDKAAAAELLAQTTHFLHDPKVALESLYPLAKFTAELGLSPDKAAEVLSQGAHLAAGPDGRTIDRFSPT

B1: RPRD1B (CREPT) (protein, UniProt Q9NQG5 1-326)
chain: MSSFSESALEKKLSELSNSQQSVQTLSLWLIHHRKHAGPIVSVWHRELRKAKSNRKLTFLYLANDVIQNSKRKGPEFTREFESVLVDAFSHVAREADEGCKKPLERLLNIWQERSVYGGEFIQQLKLSMEDSKSPPPKATEEKKSLKRTFQQIQEEEDDDYPGSYSPQDPSAGPLLTEELIKALQDLENAASGDATVRQKIASLPQEVQDVSLLEKITDKEAAERLSKTVDEACLLLAEYNGRLAAELEDRRQLARMLVEYTQNQKDVLSEKEKKLEEYKQKLARVTQVRKELKSHIQSLPDLSLLPNVTGGLAPLPSAGDLFSTD
B2: DARS (enzyme, UniProt P14868 1-501)
chain: MPSASASRKSQEKPREIMDAAEDYAKERYGISSMIQSQEKPDRVLVRVRDLTIQKADEVVWVRARVHTSRAKGKQCFLVLRQQQFNVQALVAVGDHASKQMVKFAANINKESIVDVEGVVRKVNQKIGSCTQQDVELHVQKIYVISLAEPRLPLQLDDAVRPEAEGEEEGRATVNQDTRLDNRVIDLRTSTSQAVFRLQSGICHLFRETLINKGFVEIQTPKIISAASEGGANVFTVSYFKNNAYLAQSPQLYKQMCICADFEKVFSIGPVFRAEDSNTHRHLTEFVGLDIEMAFNYHYHEVMEEIADTMVQIFKGLQERFQTEIQTVNKQFPCEPFKFLEPTLRLEYCEALAMLREAGVEMGDEDDLSTPNEKLLGHLVKEKYDTDFYILDKYPLAVRPFYTMPDPRNPKQSNSYDMFMRGEEILSGAQRIHDPQLLTERALHHGIDLEKIKAYIDSFRFGAPPHAGGGIGLERVTMLFLGLHNVRQTSMFPRDPKRLTP
B3: ARS-interacting multi-functional protein AIMP2 (protein, UniProt Q13155 1-320)
chain: MPMYQVKPYHGGGAPLRVELPTCMYRLPNVHGRSYGPAPGAGHVQEESNLSLQALESRQDDILKRLYELKAAVDGLSKMIQTPDADLDVTNIIQADEPTTLTTNALDLNSVLGKDYGALKDIVINANPASPPLSLLVLHRLLCEHFRVLSTVHTHSSVKSVPENLLKCFGEQNKKQPRQDYQLGFTLIWKNVPKTQMKFSIQTMCPIEGEGNIARFLFSLFGQKHNAVNATLIDSWVDIAIFQLKEGSSKEKAAVFRSMNSALGKSPWLAGNELTVADVVLWSVLQQIGGCSVTVPANVQRWMRSCENLAPFNTALKLLK
B4: ARS-interacting multi-functional protein AIMP1 (protein, UniProt Q12904 1-312)
chain: MANNDAVLKRLEQKGAEADQIIEYLKQQVSLLKEKAILQATLREEKKLRVENAKLKKEIEELKQELIQAEIQNGVKQIPFPSGTPLHANSMVSENVIQSTAVTTVSSGTKEQIKGGTGDEKKAKEKIEKKGEKKEKKQQSIAGSADSKPIDVSRLDLRIGCIITARKHPDADSLYVEEVDVGEIAPRTVVSGLVNHVPLEQMQNRMVILLCNLKPAKMRGVLSQAMVMCASSPEKIEILAPPNGSVPGDRITFDAFPGEPDKELNPKKKIWEQIQPDLHTNDECVATYKGVPFEVKGKGVCRAQTMSNSGIK
B5: IARS (enzyme, UniProt P41252 1-1262)
chain: MLQQVPENINFPAEEEKILEFWTEFNCFQECLKQSKHKPKFTFYDGPPFATGLPHYGHILAGTIKDIVTRYAHQSGFHVDRRFGWDCHGLPVEYEIDKTLGIRGPEDVAKMGITEYNNQCRAIVMRYSAEWKSTVSRLGRWIDFDNDYKTLYPQFMESVWWVFKQLYDKGLVYRGVKVMPFSTACNTPLSNFESHQNYKDVQDPSVFVTFPLEEDETVSLVAWTTTPWTLPSNLAVCVNPEMQYVKIKDVARGRLLILMEARLSALYKLESDYEILERFPGAYLKGKKYRPLFDYFLKCKENGAFTVLVDNYVKEEEGTGVVHQAPYFGAEDYRVCMDFNIIRKDSLPVCPVDASGCFTTEVTDFAGQYVKDADKSIIRTLKEQGRLLVATTFTHSYPFCWRSDTPLIYKAVPSWFVRVENMVDQLLRNNDLCYWVPELVREKRFGNWLKDARDWTISRNRYWGTPIPLWVSDDFEEVVCIGSVAELEELSGAKISDLHRESVDHLTIPSRCGKGSLHRISEVFDCWFESGSMPYAQVHYPFENKREFEDAFPADFIAEGIDQTRGWFYTLLVLATALFGQPPFKNVIVNGLVLASDGQKMSKRKKNYPDPVSIIQKYGADALRLYLINSPVVRAENLRFKEEGVRDVLKDVLLPWYNAYRFLIQNVLRLQKEEEIEFLYNENTVRESPNITDRWILSFMQSLIGFFETEMAAYRLYTVVPRLVKFVDILTNWYVRMNRRRLKGENGMEDCVMALETLFSVLLSLCRLMAPYTPFLTELMYQNLKVLIDPVSVQDKDTLSIHYLMLPRVREELIDKKTESAVSQMQSVIELGRVIRDRKTIPIKYPLKEIVVIHQDPEALKDIKSLEKYIIEELNVRKVTLSTDKNKYGIRLRAEPDHMVLGKRLKGAFKAVMTSIKQLSSEELEQFQKTGTIVVEGHELHDEDIRLMYTFDQATGGTAQFEAHSDAQALVLLDVTPDQSMVDEGMAREVINRIQKLRKKCNLVPTDEITVYYKAKSEGTYLNSVIESHTEFIFTTIKAPLKPYPVSPSDKVLIQEKTQLKGSELEITLTRGSSLPGPACAYVNLNICANGSEQGGVLLLENPKGDNRLDLLKLKSVVTSIFGVKNTELAVFHDETEIQNQTDLLSLSGKTLCVTAGSAPSLINSSSTLLCQYINLQLLNAKPQECLMGTVGTLLLENPLGQNGLTHQGLLYEAAKVFGLRSRKLKLFLNETQTQEITEDIPVKTLNMKTVYVSVLPTTADF
B6: DHX30 (protein, UniProt Q7L2E3 1-1194)
chain: MFSLDSFRKDRAQHRQRQCKLPPPRLPPMCVNPTPGGTISRASRDLLKEFPQPKNLLNSVIGRALGISHAKDKLVYVHTNGPKKKKVTLHIKWPKSVEVEGYGSKKIDAERQAAAAACQLFKGWGLLGPRNELFDAAKYRVLADRFGSPADSWWRPEPTMPPTSWRQLNPESIRPGGPGGLSRSLGREEEEDEEEELEEGTIDVTDFLSMTQQDSHAPLRDSRGSSFEMTDDDSAIRALTQFPLPKNLLAKVIQIATSSSTAKNLMQFHTVGTKTKLSTLTLLWPCPMTFVAKGRRKAEAENKAAALACKKLKSLGLVDRNNEPLTHAMYNLASLRELGETQRRPCTIQVPEPILRKIETFLNHYPVESSWIAPELRLQSDDILPLGKDSGPLSDPITGKPYVPLLEAEEVRLSQSLLELWRRRGPVWQEAPQLPVDPHRDTILNAIEQHPVVVISGDTGCGKTTRIPQLLLERYVTEGRGARCNVIITQPRRISAVSVAQRVSHELGPSLRRNVGFQVRLESKPPSRGGALLFCTVGILLRKLQSNPSLEGVSHVIVDEVHERDVNTDFLLILLKGLQRLNPALRLVLMSATGDNERFSRYFGGCPVIKVPGFMYPVKEHYLEDILAKLGKHQYLHRHRHHESEDECALDLDLVTDLVLHIDARGEPGGILCFLPGWQEIKGVQQRLQEALGMHESKYLILPVHSNIPMMDQKAIFQQPPVGVRKIVLATNIAETSITINDIVHVVDSGLHKEERYDLKTKVSCLETVWVSRANVIQRRGRAGRCQSGFAYHLFPRSRLEKMVPFQVPEILRTPLENLVLQAKIHMPEKTAVEFLSKAVDSPNIKAVDEAVILLQEIGVLDQREYLTTLGQRLAHISTDPRLAKAIVLAAIFRCLHPLLVVVSCLTRDPFSSSLQNRAEVDKVKALLSHDSGSDHLAFVRAVAGWEEVLRWQDRSSRENYLEENLLYAPSLRFIHGLIKQFSENIYEAFLVGKPSDCTLASAQCNEYSEEEELVKGVLMAGLYPNLIQVRQGKVTRQGKFKPNSVTYRTKSGNILLHKSTINREATRLRSRWLTYFMAVKSNGSVFVRDSSQVHPLAVLLLTDGDVHIRDDGRRATISLSDSDLLRLEGDSRTVRLLKELRRALGRMVERSLRSELAALPPSVQEEHGQLLALLAELLRGPCGSFDVRKTADD
B7: QARS (enzyme, UniProt P47897 1-775)
chain: MAALDSLSLFTSLGLSEQKARETLKNSALSAQLREAATQAQQTLGSTIDKATGILLYGLASRLRDTRRLSFLVSYIASKKIHTEPQLSAALEYVRSHPLDPIDTVDFERECGVGVIVTPEQIEEAVEAAINRHRPQLLVERYHFNMGLLMGEARAVLKWADGKMIKNEVDMQVLHLLGPKLEADLEKKFKVAKARLEETDRRTAKDVVENGETADQTLSLMEQLRGEALKFHKPGENYKTPGYVVTPHTMNLLKQHLEITGGQVRTRFPPEPNGILHIGHAKAINFNFGYAKANNGICFLRFDDTNPEKEEAKFFTAICDMVAWLGYTPYKVTYASDYFDQLYAWAVELIRRGLAYVCHQRGEELKGHNTLPSPWRDRPMEESLLLFEAMRKGKFSEGEATLRMKLVMEDGKMDPVAYRVKYTPHHRTGDKWCIYPTYDYTHCLCDSIEHITHSLCTKEFQARRSSYFWLCNALDVYCPVQWEYGRLNLHYAVVSKRKILQLVATGAVRDWDDPRLFTLTALRRRGFPPEAINNFCARVGVTVAQTTMEPHLLEACVRDVLNDTAPRAMAVLESLRVIITNFPAAKSLDIQVPNFPADETKGFHQVPFAPIVFIERTDFKEEPEPGFKRLAWGQPVGLRHTGYVIELQHVVKGPSGCVESLEVTCRRADAGEKPKAFIHWVSQPLMCEVRLYERLFQHKNPEDPTEVPGGFLSDLNLASLHVVDAALVDCSVALAKPFDKFQFERLGYFSVDPDSHQGKLVFNRTVTLKEDPGKV

Results are given in words; binding and its absence hold for the method and conditions named. In cells and extracts the contact can be indirect. Here binding means that the protein was enriched with, or labelled near, the bait; the list need not be complete.

This assay has as its target T1, hypermethylated in cancer 1 (HIC1) (human). Description: affinity purification with mass spectrometry.
BCLAF1 (from UniProt Q9NYF8 1-920): the binding entry is “binds”.
To “E3 Ubiquitin-Protein Ligase HERC2 (from UniProt O95714 1-4834) (enzyme)” belongs “binds”; to “EPRS (from UniProt P07814 1-1512) (enzyme)”, “binds”.
Under “KARS (from UniProt Q15046 1-597) (enzyme)” stands “binds”.
For the molecule “LARS (from UniProt Q9P2J5 1-1176) (enzyme)”, the binding result is “binds”.
To PARP13 (from UniProt Q7Z2W4 1-902) belongs “binds”; to RPRD2 (from UniProt Q5VT52 1-1461), “binds”.
Under “splicing factor SRSF1 (from UniProt Q07955 1-248)” stands “binds”; under B1, “binds”; under B2, “binds”.
To B3 belongs “binds”; to B4, “binds”; to B5, “binds”.
For B6, the binding result was “binds”.
Under B7 stands “binds”.
